Fewer than 10 of roughly 44,000 compounds were called active. Entries that show only a call come without a potency. Inconclusive results, whose numbers are uncertain, are shown with a selection of clear calls. Calls follow the shape of the dose curve; as a rule, active = well fitted curve in the direction sought with a large enough effect; inconclusive = small, poorly fitted or top-dose-only effect, or another doubt; inactive = no such curve, though single readings can be large or run the other way. Potencies beside an inconclusive call are fits to weak or partial responses and may not hold up.
These compounds were tested against Galactokinase (Homo sapiens) (UniProt P51570) (assay: qHTS Assay for Inhibitors of Human Galactokinase (GALK): NCGC Sytravon Library Screen). Settings: recombinant GALK, Kinase-Glo ATP luminescence, 1 h; series mostly up to 57.5 µM.
Description: Inherited deficiency of galactose-1-phosphate uridyltransferase (GALT) can result in a potentially lethal disorder called Classic Galactosemia (OMIM 230400). Several lines of evidence indicate that an elevated level of galactose-1-phosphate (gal-1-p), the product of galactokinase (GALK), is a major, if not sole, pathogenic mechanism in patients with classic galactosemia. Therefore, finding inhibitors of GALK is a potential novel therapy for this inherent metabolic disease and is the long term goal of this project. This screen is run against the NCGC Sytravon compound library collection. GALK (provided by Kent Lai) was assayed using ATP and D-(+)-Galactose (Sigma-Aldrich cat# G0750) as substrates. Promega Kinase-Glo Plus technology was used to detect kinase activity. Reactions with and without GALK were used as negative and positive controls together with Protein Tyrosine Phosphatase CD45 inhibitor (EMD Bioscience cat# 540215) which is shown to inhibit GALK activity. Decrease in activity corresponds to inhibition of the enzyme is the desired outcome for this assay. NIH Molecular Libraries Probe Production Network [MLPCN] NIH Chemical Genomics Center [NCGC] Grant: R03 MH085689-01 PI Name: Kent Lai Ph.D., University of Utah
NCGC Assay Protocol Summary: Three uL/well of ATP-buffer solution (35 uM ATP, 20mM HEPES pH8.0, 5 mM MgCl2, 60 mM NaCl, 1 mM DTT, 0.01% BSA final concentration) was dispensed into 1536-well, assay plates (Greiner, solid white medium-binding plates) with Aurora Discovery BioRAPTR Flying Reagent Dispenser (FRD; Beckton-Dickenson). Compound solution (23 nL) was transferred to the assay plate using the Kalypsys 1536-pin tool. One uL/well GALK-galactose solution (5 nM GALK, 100 uM galactose, 20 mM HEPES pH8.0, 5 mM MgCl2, 60 mM NaCl, 1 mM DTT, 0.01% BSA final concentration) was then added using the FRD yielding a total kinase reaction volume of 4 uL/ well. After 1 hour of room temperature incubation, 4 uL Kinase-Glo Plus reagent was added for a final assay volume of 8 uL/ well. Luminescence was detected with the ViewLux plate reader (Perkin Elmer, Waltham, MA) after 10 min incubation using a 1 sec exposure time and 2x binning.

Amino acid sequences for entries named in this document (tags omitted). A change or cut given only in a name is not applied to a line headed by its entry.
UniProt P51570: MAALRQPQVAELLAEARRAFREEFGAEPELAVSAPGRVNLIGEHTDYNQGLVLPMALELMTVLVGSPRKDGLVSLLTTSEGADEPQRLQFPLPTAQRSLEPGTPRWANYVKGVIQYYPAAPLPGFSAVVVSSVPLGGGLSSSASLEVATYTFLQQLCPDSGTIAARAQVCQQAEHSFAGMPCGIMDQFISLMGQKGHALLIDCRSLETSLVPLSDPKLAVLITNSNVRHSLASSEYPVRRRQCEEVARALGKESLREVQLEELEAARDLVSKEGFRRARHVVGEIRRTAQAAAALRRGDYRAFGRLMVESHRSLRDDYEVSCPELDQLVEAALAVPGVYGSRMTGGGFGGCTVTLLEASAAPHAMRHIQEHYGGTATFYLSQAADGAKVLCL

Row | SMILES | Potency
1 | Nc1c(C(=O)Nc2ccc(OC(F)(F)F)cc2)sc2nc3c(cc12)N1CCC3CC1 | inactive
2 | CCOc1ccc(CN(CCc2ccc3c(c2)OCO3)Cc2cccc(Br)c2)cc1 | inactive
3 | CCOC(=O)c1ccc(NC(=O)c2sc3nc4c(cc3c2N)N2CCC4CC2)cc1 | inactive
4 | N#Cc1cc2c(nc1SCC(=O)Nc1ccc(C(F)(F)F)cc1)C1CCN2CC1 | inactive
5 | CCN(CC)C(=O)c1ccc(NC(=O)Cn2nc(-c3ccc(C)cc3)c3ccccc3c2=O)cc1 | inconclusive: 0.447 µM [inhibitor, full curve, poor fit]
6 | N#Cc1cc2c(nc1SCC(=O)Nc1ccc(F)c(Cl)c1)C1CCN2CC1 | inconclusive: 7.08 µM [inhibitor, partial curve, poor fit]
7 | Cc1ccccc1-c1nc(CN2C(=O)CN=C(c3ccccc3)c3ccccc32)c(C)o1 | inactive
8 | Cc1c(C(c2ccc(Br)cc2)c2c(O)c3ccccc3oc2=O)c(=O)n(-c2ccccc2)n1C (centres undefined) | inconclusive: 20 µM [inhibitor, partial curve, poor fit]
9 | COc1ccc(NC(=O)CCc2nc(C3=CCN(Cc4cccc(Cl)c4)CC3)no2)c(OC)c1 | inactive

— PubChem BioAssay AID1347072 (National Center for Advancing Translational Sciences (NCATS), 2019)
